Test results as given in patent US10851053B2, “Chemical compounds” (GlaxoSmithKline Intellectual Property Development Limited, priority 2016, dated 2020).
Some entries share one result that the patent states for a list of compounds.

System: ATF4 translation (ATF4 pathway), SH-SY5Y-ATF4-NanoLuc cells
Test: ATF4 cell based assay (ATF4 5'-UTR NanoLuc luciferase reporter, Thapsigargin induced cellular stress)
Conditions: SH-SY5Y-ATF4-NanoLuc cells challenged with Thapsigargin for 14-18 hours; average of two or more experimental runs; read-out: average ATF4 pathway inhibitory activity (IC50)
Source text: The ATF4 reporter assay measures the effect of Thapsigargin induced cellular stress on ATF4 expression. For this reporter assay, a stable cell line was created by transfecting SH-SY5Y cells with a plasmid containing the NanoLuc® luciferase gene fused to the 5′-UTR of ATF4, under the control of the CMV promoter. The ATF4 5′-UTR contains two open reading frames which mediate the cellular stress-dependent translation of the reporter gene. Clones stably expressing the reporter construct were isolated and selected based on the luminescence response to thapsigargin and inhibition of this signal by test compounds. […]
The measurement of luciferase produced by the ATF4 constructs was measured as follows. Aliquots of the Nano-Glo reagent (Nano-Glo® Luciferase Assay Substrate, Promega, N113, Nano-Glo® Luciferase Assay Buffer, Promega, N112 (parts of Nano-Glo® Luciferase Assay System, N1150) were brought to room temperature, the substrate and buffer were mixed according to manufacturer's instructions. The cell plates were equilibrated to room temperature. 25 microliters/well of the mixed Nano-Glo reagent were dispensed into assay wells and pulse spun to settle contents and the plate was sealed with film. The plates were incubated at room temperature for 1 hour before detecting luminescence on an Envision plate reader. […]

O=C(COc1ccc(Cl)cc1)NCC1CCN(CCCOc2ccc(Cl)cc2)C1 (stereo not shown) [Example 27, 2-(4-chlorophenoxy)-N-((1-(3-(4-chlorophenoxy)propyl)pyrrolidin-3-yl)methyl)acetamide]
IC50: < 100 nM
